# Data taken from the supplement of paper PMC6411743.
# Amino acid sequences for entries named in this document (tags omitted). A change or cut given only in a name is not applied to a line headed by its entry.
# UniProt O75368: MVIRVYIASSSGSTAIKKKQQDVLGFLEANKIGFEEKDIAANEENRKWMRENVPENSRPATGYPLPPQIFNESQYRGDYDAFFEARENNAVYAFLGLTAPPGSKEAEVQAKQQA
# UniProt O95169, whole entry: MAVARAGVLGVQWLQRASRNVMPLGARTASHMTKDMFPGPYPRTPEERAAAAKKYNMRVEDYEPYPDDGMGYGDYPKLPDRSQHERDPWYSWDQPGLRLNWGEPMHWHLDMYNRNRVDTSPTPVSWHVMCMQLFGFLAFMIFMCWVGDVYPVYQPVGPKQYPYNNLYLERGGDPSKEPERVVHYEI
# UniProt O75367, whole entry: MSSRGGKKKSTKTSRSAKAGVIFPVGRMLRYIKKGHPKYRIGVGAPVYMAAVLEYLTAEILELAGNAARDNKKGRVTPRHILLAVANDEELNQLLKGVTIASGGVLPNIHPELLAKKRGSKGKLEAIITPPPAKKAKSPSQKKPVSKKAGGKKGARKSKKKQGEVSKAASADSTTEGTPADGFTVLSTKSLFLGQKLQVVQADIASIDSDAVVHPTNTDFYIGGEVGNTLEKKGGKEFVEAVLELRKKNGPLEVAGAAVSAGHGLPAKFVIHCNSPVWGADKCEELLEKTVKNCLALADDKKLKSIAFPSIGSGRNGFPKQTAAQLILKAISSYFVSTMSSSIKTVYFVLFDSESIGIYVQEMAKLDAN
# UniProt O95571: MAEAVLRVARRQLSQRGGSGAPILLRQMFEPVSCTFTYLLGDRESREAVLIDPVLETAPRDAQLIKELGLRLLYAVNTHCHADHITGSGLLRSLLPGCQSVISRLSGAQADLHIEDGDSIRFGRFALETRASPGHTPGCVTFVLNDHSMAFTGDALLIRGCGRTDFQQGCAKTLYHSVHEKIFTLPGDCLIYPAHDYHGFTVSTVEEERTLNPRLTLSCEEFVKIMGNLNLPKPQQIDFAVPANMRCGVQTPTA
# UniProt O95714: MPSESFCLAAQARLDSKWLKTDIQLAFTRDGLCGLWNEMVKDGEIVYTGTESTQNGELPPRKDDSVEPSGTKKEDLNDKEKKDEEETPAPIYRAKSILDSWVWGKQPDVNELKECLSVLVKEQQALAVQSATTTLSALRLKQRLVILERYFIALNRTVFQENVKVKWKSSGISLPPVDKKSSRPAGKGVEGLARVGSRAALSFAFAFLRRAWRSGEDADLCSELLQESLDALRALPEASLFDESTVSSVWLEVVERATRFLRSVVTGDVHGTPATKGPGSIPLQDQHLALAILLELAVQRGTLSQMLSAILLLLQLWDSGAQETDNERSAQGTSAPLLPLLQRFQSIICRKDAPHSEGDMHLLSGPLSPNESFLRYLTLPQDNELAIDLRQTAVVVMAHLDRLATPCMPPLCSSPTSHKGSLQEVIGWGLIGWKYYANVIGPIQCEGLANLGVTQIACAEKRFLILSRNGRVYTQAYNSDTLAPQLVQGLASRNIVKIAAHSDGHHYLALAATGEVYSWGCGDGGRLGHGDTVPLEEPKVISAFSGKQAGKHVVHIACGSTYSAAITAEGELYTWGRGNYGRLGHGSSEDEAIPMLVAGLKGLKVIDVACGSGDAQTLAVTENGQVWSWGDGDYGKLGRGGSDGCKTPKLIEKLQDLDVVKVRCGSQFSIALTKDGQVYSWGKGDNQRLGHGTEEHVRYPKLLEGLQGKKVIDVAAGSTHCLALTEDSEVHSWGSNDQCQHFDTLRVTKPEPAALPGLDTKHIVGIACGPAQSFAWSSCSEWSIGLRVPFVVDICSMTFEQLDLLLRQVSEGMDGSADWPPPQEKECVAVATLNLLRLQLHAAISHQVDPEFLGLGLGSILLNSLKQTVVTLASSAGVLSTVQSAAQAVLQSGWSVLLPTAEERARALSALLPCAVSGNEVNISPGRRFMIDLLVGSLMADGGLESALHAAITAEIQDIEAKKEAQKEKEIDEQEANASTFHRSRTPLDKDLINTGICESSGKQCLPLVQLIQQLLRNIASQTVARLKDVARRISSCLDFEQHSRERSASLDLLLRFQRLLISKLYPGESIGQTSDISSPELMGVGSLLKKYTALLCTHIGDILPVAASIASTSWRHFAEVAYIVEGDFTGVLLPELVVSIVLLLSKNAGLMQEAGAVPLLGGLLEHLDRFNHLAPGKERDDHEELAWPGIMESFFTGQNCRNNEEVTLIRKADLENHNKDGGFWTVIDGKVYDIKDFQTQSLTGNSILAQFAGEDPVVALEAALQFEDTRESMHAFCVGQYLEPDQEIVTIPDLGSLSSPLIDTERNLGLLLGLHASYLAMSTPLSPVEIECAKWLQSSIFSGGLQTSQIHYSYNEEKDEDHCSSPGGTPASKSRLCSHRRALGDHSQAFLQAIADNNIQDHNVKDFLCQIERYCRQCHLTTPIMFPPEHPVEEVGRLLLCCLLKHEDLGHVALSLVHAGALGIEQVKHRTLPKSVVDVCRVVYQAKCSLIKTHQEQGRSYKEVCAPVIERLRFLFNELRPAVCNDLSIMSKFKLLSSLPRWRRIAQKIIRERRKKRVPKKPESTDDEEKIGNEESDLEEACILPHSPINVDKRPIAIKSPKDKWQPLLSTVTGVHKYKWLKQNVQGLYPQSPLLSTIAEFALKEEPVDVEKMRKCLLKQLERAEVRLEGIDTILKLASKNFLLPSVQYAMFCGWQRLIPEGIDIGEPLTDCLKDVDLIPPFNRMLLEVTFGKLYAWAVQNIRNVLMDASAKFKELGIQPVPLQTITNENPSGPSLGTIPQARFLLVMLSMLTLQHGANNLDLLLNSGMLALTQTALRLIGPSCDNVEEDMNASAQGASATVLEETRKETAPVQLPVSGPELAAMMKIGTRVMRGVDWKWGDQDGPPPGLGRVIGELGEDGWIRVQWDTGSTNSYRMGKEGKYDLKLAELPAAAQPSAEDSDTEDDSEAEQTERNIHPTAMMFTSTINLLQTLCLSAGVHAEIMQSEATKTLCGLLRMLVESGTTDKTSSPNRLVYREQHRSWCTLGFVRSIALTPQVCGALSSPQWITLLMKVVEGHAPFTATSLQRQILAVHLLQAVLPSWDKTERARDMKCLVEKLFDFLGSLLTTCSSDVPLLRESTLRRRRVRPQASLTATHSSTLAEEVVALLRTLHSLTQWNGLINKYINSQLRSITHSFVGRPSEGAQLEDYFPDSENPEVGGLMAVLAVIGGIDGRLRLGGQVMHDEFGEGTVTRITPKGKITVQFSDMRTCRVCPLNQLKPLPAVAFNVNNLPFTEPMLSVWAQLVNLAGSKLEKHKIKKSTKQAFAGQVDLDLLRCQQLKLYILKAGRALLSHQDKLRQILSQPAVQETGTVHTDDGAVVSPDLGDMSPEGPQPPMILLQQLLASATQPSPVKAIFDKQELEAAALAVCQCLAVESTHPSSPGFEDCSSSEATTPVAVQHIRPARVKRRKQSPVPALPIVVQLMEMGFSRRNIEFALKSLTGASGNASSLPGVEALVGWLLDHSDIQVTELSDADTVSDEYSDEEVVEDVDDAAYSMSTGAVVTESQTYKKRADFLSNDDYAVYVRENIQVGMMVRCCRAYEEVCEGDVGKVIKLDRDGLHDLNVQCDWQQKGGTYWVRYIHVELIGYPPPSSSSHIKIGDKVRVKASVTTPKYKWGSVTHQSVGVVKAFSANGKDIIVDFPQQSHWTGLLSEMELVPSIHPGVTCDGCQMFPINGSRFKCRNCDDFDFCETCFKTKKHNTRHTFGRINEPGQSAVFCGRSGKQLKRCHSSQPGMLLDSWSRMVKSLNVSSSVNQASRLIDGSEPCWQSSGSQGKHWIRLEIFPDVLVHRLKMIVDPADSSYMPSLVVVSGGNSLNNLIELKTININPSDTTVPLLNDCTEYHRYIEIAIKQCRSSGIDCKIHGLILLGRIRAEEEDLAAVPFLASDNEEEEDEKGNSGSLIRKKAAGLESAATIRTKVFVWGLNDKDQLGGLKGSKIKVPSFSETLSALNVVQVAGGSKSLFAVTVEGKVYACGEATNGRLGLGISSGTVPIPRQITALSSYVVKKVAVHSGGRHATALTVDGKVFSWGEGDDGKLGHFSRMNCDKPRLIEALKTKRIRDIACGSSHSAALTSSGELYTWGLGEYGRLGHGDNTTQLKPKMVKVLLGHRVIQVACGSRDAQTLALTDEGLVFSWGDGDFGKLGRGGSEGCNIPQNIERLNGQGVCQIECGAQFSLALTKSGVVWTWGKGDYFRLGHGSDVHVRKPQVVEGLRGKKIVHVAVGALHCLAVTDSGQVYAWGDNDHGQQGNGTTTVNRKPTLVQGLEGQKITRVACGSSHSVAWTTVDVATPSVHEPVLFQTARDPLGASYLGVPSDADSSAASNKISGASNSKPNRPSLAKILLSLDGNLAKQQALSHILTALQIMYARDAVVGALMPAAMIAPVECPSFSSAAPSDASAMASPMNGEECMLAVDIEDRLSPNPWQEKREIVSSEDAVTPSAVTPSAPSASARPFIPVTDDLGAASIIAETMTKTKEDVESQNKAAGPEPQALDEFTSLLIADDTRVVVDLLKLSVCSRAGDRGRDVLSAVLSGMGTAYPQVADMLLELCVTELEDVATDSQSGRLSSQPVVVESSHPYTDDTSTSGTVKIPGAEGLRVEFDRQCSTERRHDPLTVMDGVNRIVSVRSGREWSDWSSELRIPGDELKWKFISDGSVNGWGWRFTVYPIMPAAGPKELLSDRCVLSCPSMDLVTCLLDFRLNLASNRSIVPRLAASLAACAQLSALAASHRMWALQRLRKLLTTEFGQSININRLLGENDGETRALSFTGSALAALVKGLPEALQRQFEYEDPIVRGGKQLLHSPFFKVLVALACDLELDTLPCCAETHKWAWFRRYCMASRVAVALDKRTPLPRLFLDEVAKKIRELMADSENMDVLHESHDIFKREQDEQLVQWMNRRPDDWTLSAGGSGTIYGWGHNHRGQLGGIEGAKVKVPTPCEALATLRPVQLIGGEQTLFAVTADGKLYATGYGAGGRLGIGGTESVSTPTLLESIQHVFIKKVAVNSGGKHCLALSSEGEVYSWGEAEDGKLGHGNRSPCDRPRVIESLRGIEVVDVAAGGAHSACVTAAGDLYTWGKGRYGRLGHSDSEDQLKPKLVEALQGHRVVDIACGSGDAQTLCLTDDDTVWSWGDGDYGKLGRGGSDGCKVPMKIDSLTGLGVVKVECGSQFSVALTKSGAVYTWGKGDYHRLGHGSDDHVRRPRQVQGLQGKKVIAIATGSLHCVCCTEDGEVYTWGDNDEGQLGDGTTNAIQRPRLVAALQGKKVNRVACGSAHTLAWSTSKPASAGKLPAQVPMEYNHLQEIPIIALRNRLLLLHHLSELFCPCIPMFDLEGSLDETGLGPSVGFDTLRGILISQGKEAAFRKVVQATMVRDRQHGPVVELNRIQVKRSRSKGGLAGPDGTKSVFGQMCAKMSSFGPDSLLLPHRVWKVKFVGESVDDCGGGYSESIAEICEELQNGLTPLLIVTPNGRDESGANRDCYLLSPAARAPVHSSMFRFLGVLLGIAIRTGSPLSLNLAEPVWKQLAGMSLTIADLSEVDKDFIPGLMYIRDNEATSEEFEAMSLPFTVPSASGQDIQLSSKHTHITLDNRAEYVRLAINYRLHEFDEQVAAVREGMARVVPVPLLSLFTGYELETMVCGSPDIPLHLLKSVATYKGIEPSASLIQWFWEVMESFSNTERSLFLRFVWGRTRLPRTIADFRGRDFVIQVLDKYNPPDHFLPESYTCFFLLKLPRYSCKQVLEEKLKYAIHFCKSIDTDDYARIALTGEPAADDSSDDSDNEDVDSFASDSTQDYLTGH
# UniProt O75528: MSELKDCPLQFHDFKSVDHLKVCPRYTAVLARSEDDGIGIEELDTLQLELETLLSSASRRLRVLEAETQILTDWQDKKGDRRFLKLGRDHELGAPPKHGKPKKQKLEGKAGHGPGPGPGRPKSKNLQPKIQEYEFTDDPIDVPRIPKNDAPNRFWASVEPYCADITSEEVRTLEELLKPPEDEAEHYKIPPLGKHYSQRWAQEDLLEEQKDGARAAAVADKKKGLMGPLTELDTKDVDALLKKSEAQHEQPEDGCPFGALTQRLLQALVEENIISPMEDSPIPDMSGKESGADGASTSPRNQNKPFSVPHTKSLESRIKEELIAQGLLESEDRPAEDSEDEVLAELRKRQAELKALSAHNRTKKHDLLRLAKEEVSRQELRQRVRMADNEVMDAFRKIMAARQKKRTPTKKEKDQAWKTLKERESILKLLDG
# UniProt O95236: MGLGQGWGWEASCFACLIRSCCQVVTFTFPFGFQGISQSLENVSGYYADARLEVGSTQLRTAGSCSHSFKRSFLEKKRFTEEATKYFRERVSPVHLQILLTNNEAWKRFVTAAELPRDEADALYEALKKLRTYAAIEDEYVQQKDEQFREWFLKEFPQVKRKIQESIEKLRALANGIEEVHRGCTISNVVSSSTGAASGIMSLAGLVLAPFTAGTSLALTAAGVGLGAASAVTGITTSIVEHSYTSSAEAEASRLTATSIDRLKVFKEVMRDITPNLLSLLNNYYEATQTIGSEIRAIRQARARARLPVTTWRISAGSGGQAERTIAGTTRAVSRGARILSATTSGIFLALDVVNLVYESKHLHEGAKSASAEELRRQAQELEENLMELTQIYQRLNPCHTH
# ± gives the standard deviation of the averaged measurements. The list shows a part of the results, in another mix than the full data.
# Compound: Nc1ncnc2c1ncn2[C@@H]1O[C@H](COP(=O)(O)OP(=O)(O)OP(=O)(O)O)[C@@H](O)[C@H]1O [adenosine triphosphate]
# Experiment: NP40-soluble protein abundance relative to vehicle (solubility fold change) (ratio); higher = more soluble protein in presence of ATP
# In short: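 Jurkat crude lysate (Dounce-homogenised) was treated with eight concentrations from 0.1 to 10 mM for 10 min at room temperature, then 3 min at 37 °C. It was solubilised with 0.8% NP40 and benzonase (60 min, 4 °C) and ultracentrifuged, and the supernatant was TMT-labelled for LC-MS/MS. Intensities were vsn-normalised, and the value is the fold change against the NP40-processed vehicle per replicate, from three independent experiments.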
Target,NP40-soluble protein abundance (concentration: 1mM),NP40-soluble protein abundance (concentration: 2mM),NP40-soluble protein abundance (concentration: 4mM),NP40-soluble protein abundance (concentration: 6mM),NP40-soluble protein abundance (concentration: 8mM),NP40-soluble protein abundance (concentration: 10mM)
UniProt O95425 and related entries,1.08 ± 0.28,0.954 ± 0.029,1.15 ± 0.15,1.05 ± 0.09,1.14 ± 0.24,1.09 ± 0.14
SH3BGRL (UniProt O75368),0.923 ± 0.04,0.909 ± 0.025,0.863 ± 0.026,0.916 ± 0.044,0.893 ± 0.012,0.859 ± 0.048
UBXN7 (UniProt O94888),0.966 ± 0.046,0.933 ± 0.028,0.917 ± 0.012,0.925 ± 0.027,0.927 ± 0.019,0.913 ± 0.01
UniProt O95568 and related entries,0.953 ± 0.046,1.01 ± 0.084,0.972 ± 0.014,1 ± 0.046,0.989 ± 0.15,1.05 ± 0.1
UniProt O75319 and related entries,1.16 ± 0.013,1.16 ± 0.0082,1.4 ± 0.19,1.39 ± 0.039,1.48 ± 0.17,1.55 ± 0.11
UniProt O95747,1 ± 0.015,1 ± 0.05,0.963 ± 0.029,0.984 ± 0.053,0.952 ± 0.047,0.953 ± 0.065
N4BP1 (UniProt O75113),0.96 ± 0.018,0.942 ± 0.019,0.942 ± 0.026,0.96 ± 0.022,0.9157 ± 0.008,0.918 ± 0.016
POP4 (UniProt O95707),1.01 ± 0.087,0.998 ± 0.028,1.038 ± 0.0046,0.919 ± 0.13,1.1 ± 0.077,1.08 ± 0.064
MAN1A2 (UniProt O60476),0.989 ± 0.067,0.992 ± 0.018,1.01 ± 0.031,0.984 ± 0.046,0.982 ± 0.017,0.987 ± 0.086
UniProt O95453 and related entries,0.997 ± 0.031,0.999 ± 0.026,0.979 ± 0.017,0.999 ± 0.046,0.98 ± 0.018,0.982 ± 0.019
LYPLA2 (UniProt O95372),0.943 ± 0.022,0.968 ± 0.036,0.952 ± 0.014,0.928 ± 0.029,0.942 ± 0.059,0.898 ± 0.056
UniProt O95169 and related entries,0.964 ± 0.11,0.906 ± 0.051,0.898 ± 0.077,0.96 ± 0.086,0.993 ± 0.094,0.854 ± 0.12
UniProt O75367 and related entries,0.852 ± 0.075,0.861 ± 0.023,0.883 ± 0.04,0.96 ± 0.025,0.995 ± 0.036,1.16 ± 0.08
UniProt O75419 and related entries,1 ± 0.11,1.01 ± 0.079,1.03 ± 0.096,0.97 ± 0.15,1.02 ± 0.076,1.04 ± 0.092
UniProt O94804,0.98 ± 0.026,0.9785 ± 0.0081,0.973 ± 0.011,0.9999 ± 0.0083,0.9482 ± 0.0093,0.975 ± 0.026
ARL6IP5 (UniProt O75915),0.993 ± 0.04,0.951 ± 0.05,0.915 ± 0.038,1.01 ± 0.044,0.917 ± 0.027,0.923 ± 0.019
UniProt O95628 and related entries,0.952 ± 0.052,0.979 ± 0.014,0.972 ± 0.032,0.939 ± 0.055,0.923 ± 0.017,0.961 ± 0.019
ETHE1 (UniProt O95571),0.961 ± 0.071,0.949 ± 0.07,0.955 ± 0.1,0.971 ± 0.093,0.926 ± 0.069,0.927 ± 0.064
HERC2 (UniProt O95714),0.963 ± 0.13,0.979 ± 0.099,1.02 ± 0.13,0.981 ± 0.2,1.05 ± 0.058,1.04 ± 0.11
SLC25A12 (UniProt O75746),0.998 ± 0.04,0.986 ± 0.025,0.984 ± 0.034,0.934 ± 0.02,1 ± 0.03,1.01 ± 0.023
UniProt O75528,0.996 ± 0.038,1.02 ± 0.025,1.06 ± 0.029,1.09 ± 0.036,1.09 ± 0.018,1.07 ± 0.025
UniProt O94763 and related entries,0.96 ± 0.029,0.956 ± 0.018,0.9385 ± 0.0087,1.01 ± 0.11,0.968 ± 0.025,0.955 ± 0.019
UniProt O95163,1.07 ± 0.12,1.03 ± 0.084,1.03 ± 0.088,0.966 ± 0.055,1.07 ± 0.037,1.02 ± 0.049
UniProt O95236 and related entries,0.894 ± 0.017,0.908 ± 0.037,0.936 ± 0.034,0.882 ± 0.022,0.889 ± 0.035,0.902 ± 0.03
UniProt O60508 and related entries,1.08 ± 0.087,1.04 ± 0.043,1.06 ± 0.044,1.06 ± 0.025,1.14 ± 0.072,1.14 ± 0.043
UniProt O60502 and related entries,0.969 ± 0.012,0.964 ± 0.012,0.952 ± 0.014,0.949 ± 0.019,0.95 ± 0.021,0.94 ± 0.019
UniProt O75808 and related entries,0.882 ± 0.068,0.945 ± 0.082,0.974 ± 0.1,0.949 ± 0.13,0.893 ± 0.12,0.913 ± 0.089
ERAL1 (UniProt O75616),1.15 ± 0.13,1.1 ± 0.14,1.17 ± 0.13,1.14 ± 0.24,1.11 ± 0.1,1.14 ± 0.3
UniProt O60733 and related entries,0.826 ± 0.0098,0.844 ± 0.012,0.72 ± 0.019,0.886 ± 0.014,0.81 ± 0.026,0.806 ± 0.081
UniProt O75143 and related entries,1.02 ± 0.032,1.02 ± 0.042,0.978 ± 0.025,1 ± 0.018,1.01 ± 0.043,0.99 ± 0.046

# A portion from the list above:
Target,NP40-soluble protein abundance (concentration: 1mM),NP40-soluble protein abundance (concentration: 2mM),NP40-soluble protein abundance (concentration: 4mM),NP40-soluble protein abundance (concentration: 6mM),NP40-soluble protein abundance (concentration: 8mM),NP40-soluble protein abundance (concentration: 10mM)
UniProt O95453 and related entries,0.997 ± 0.031,0.999 ± 0.026,0.979 ± 0.017,0.999 ± 0.046,0.98 ± 0.018,0.982 ± 0.019
LYPLA2 (UniProt O95372),0.943 ± 0.022,0.968 ± 0.036,0.952 ± 0.014,0.928 ± 0.029,0.942 ± 0.059,0.898 ± 0.056
